Our source for the binding values is US20150132307A1.

In this assay the target is T1, Human IL17E (human) (UniProt Q9H293).
T1 sequence: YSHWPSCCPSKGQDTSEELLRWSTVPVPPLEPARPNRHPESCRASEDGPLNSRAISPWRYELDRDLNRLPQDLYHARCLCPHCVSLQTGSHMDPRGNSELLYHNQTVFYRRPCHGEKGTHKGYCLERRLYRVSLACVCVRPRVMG
The experiment in a line: ELISA on coated IL-17 subtype; OD relative to IL-17A binding (100). (In general: ELISA stands for enzyme-linked immunosorbent assay.)

Substitutions are numbered along the chain they refer to. No constants are given. Whether binding was seen depends on the method and setting.

B1: <IL17> 9C6-2B6 (antibody, V domains shown)
VH: QVQLKESGPGLVAPSQSLSITCTVSGFSLDSYGVHWVRQPPGKGLEWLVVIWSDGTTTYNSALKSRLSITKDNSKSQVFLKMNSLQTDDTAIYYCARDTHYRLYYYAMDYWGQGTSVTVSS
VL: DVVMTQTPLSLPVSLGDQASISCRSSQSLVHSNGDTYFHWYLQKPGQSPKLLIYKVSNRFSGVPDRFSGSGSGTDFTLKINRVEAEDLGVYFCSQTTHAPFTFGSGTKLEIK
As for B1, the binding entry is reported as “no binding (tested: 10 µg/ml antibody)”.

B2: <IL17> 9C6-2B6-136 (antibody, V domains shown)
VH: EVQLVESGGGLVQPGGSLRLSCAASGFSLDSYGVHWVRQATGKGLEWVSVIWSDGTTTYNSALKSRFTISRENAKNSLYLQMNSLRAGDTAVYYCARDTHYRLYYYAMDYWGQGTTVTVSS
VL: DIVMTQSPLSLPVTPGEPASISCRSSQSLVHSNGDTYFHWYLQKPGQSPQLLIYKVSNRFSGVPDRFSGSGSGTDFTLKISRVEAEDVGVYYCSQTTHAPFTFGQGTKLEIK
Regarding B2, the binding entry is “no binding (tested: 10 µg/ml antibody)”.

B3: <IL17> 9C6-2B6-134 (antibody, V domains shown)
VH: B2 VH with T41P, E72D, A74S, S77T, G88E
VL: B2 VL
B3: the binding entry is “no binding (tested: 10 µg/ml antibody)”.
